US20030153081A1 (priority 1999, published 2003)

Legend:
[1] = general procedure: Fmoc solid-phase peptide synthesis; preloaded L-Pro-2-chlorotrityl resin; HBTU/HOBt; conditions: whole synthesis, scale 0.1 mmol
[2] = general procedure: Fmoc solid-phase peptide synthesis; Gly-Wang resin; HBTU/HOBt; conditions: whole synthesis, scale 0.03 mmol
[3] = HPLC analysis, elution monitored at 220-230 nm

Substance | final HPLC purity [1, 3] [%] | isolated mass ([1]; overall) [mg] | isolated yield ([1]; overall) [%] | final HPLC purity [2, 3] [%] | isolated mass ([2]; overall) [mg] | isolated yield ([2]; overall) [%]
NH2—Met—Ala—Pro—Lys—Arg—Lys—Ser—Gly—Val—Ser—Lys—Cys—Glu—Thr—Lys—Cys—Thr—Pro—Pro—OH (MAPKRKSGVSKCETKCTPP; printed: Met—Ala—Pro—Lys—Arg—Lys—Ser—Gly—Val—Ser—Lys—Cys—Glu—Thr—Lys—Cys—Thr—Pro—Pro—) | >95 | 32 | 15 | – | – | –
PEPTIDE1{M.R.R.A.H.H.R.R.R.R.A.S.H.R.R.M.R.G.G}$$$$V2.0 | – | – | – | >95 | 65 | 80

For part of these data: Strings that start with PEPTIDE1 are HELM notation: dots part the residues, brackets hold end groups and non-standard residues.
